Test results as given in PubChem BioAssay AID248 (DTP/NCI, 2004).
The list is a part of this screen's results and no random one: it is rich in T/C values a quarter to a half above the control, in often repeated tests (any T/C) and in doses without a T/C. Other doses and runs of a compound stand elsewhere. T/C: endpoint of the treated group in % of that of the vehicle group. Some entries give survivors of the animals treated and no T/C: the source holds a T/C of zero for them, seemingly a mark for toxic or unscored doses. Some doses without a T/C left all or most animals alive at the check, yet need not have been tolerated: survival well below the control is almost never listed, so the zero probably covers shortened survival too. Survivors were counted at the toxicity check, usually on the fifth day, unless a day is given; later deaths do not show. Schedule codes are those of the source, read here as Q, the interval in days (D) or hours (H), X, the number of doses. Marks such as (2×) say how often a value occurs here. Some schedules carry Z or #; the key to these is not given. Some molecules as drawn cover several salts, stereoisomers or complexes of the source; a dose is that of the sample tested. For survival time, this PubChem deposit counts one and a half times the control or more as active, and values a quarter to a half above the control carry no call in these data; other NCI protocols may use other cut-offs.

Tested on: L1210 leukemia ip in BDF1 mice, survival T/C
Assay: NCI In Vivo Anticancer Drug Screen. Data for tumor model L1210 Leukemia (intraperitoneal) in B6D2F1 (BDF1) mice
Settings: T/C endpoint: mean survival time, higher T/C = longer survival
[1] = dose: 400.0 mg/kg/injection, schedule: Q04DX003 (ip), vehicle: saline with Tween-80
[2] = dose: 400.0 mg/kg/injection, schedule: Q04DX003 (ip), vehicle: saline
[3] = dose: 200.0 mg/kg/injection, schedule: Q01DX001 (ip), vehicle: saline with Tween-80
[4] = dose: 400.0 mg/kg/injection, schedule: Q01DX001 (ip), vehicle: saline with Tween-80
[5] = dose: 400.0 mg/kg/injection, schedule: Q01DX009 (ip), vehicle: Klucel (hydroxypropylcellulose) (HPC)
[6] = dose: 50.0 mg/kg/injection, schedule: Q01DX001 (ip), vehicle: saline
[7] = dose: 100.0 mg/kg/injection, schedule: Q01DX001 (ip), vehicle: saline
[8] = dose: 200.0 mg/kg/injection, schedule: Q01DX001 (ip), vehicle: saline
[9] = dose: 400.0 mg/kg/injection, schedule: Q01DX001 (ip), vehicle: saline
[10] = dose: 100.0 mg/kg/injection, schedule: Q01DX001 (ip), vehicle: saline with Tween-80
[11] = dose: 400.0 mg/kg/injection, schedule: Q01DX009 (ip), vehicle: saline
[12] = dose: 100.0 mg/kg/injection, schedule: Q01DX009 (ip), vehicle: Klucel (hydroxypropylcellulose) (HPC)
[13] = dose: 200.0 mg/kg/injection, schedule: Q01DX009 (ip), vehicle: Klucel (hydroxypropylcellulose) (HPC)

SMILES: CSCCC(C#N)c1ccccc1 (configuration not stated)
- survivor count [1]: 1 of 6
- survivor count [2]: 1 of 6

SMILES: CC12c3ccccc3C(c3ccccc31)C1C(=O)OC(=O)C12 (configuration not stated)
- survivor count [1]: 4 of 6

SMILES: CC(=O)/C(=C\c1ccc(Cl)c(Cl)c1)C(=O)c1ccccc1
- survivor count (dose: 400.0 mg/kg/injection, schedule: Q01DX009 (ip), vehicle: other): 0 of 6

SMILES: C(=N/Nc1ccccn1)/c1cccnc1
- survivor count [3]: 3 of 6
- survivor count [4]: 3 of 6

SMILES: CCN(CC)CCCC#CCN1CCOCC1
- survivor count [2]: 0 of 6

SMILES: CCN(CC)CCNC(=O)c1ccc(N=Cc2cc(Br)ccc2O)cc1
- survivor count [5]: 0 of 6

SMILES: COc1ccc2nc3cc(Cl)ccc3c(Nc3ccc(O)c(CNCCO)c3)c2c1
- survivor count (dose: 150.0 mg/kg/injection, schedule: Q01DX001 (ip), vehicle: carboxymethylcellulose (CMC)): 1 of 6
- survivor count (dose: 300.0 mg/kg/injection, schedule: Q01DX001 (ip), vehicle: carboxymethylcellulose (CMC)): 0 of 6

SMILES: CC([NH-])CO.CC([NH-])CO.[Cu+2] (configuration not stated)
- survivor count [6]: 0 of 6
- survivor count [7]: 1 of 6
- survivor count [8]: 0 of 6
- survivor count [9]: 1 of 6

SMILES: COC(=O)CCC1([N+](=O)[O-])CCCCC1
- T/C (dose: 25.0 mg/kg/injection, schedule: Q01DX009 (ip), vehicle: saline with Tween-80): 146 % of control

SMILES: CCOC(=O)c1[nH]c2ccsc2c1C[N+]1(C)CCCCC1
- survivor count (dose: 50.0 mg/kg/injection, schedule: Q01DX001 (ip), vehicle: saline with Tween-80): 0 of 6
- survivor count [10]: 0 of 6
- survivor count [3]: 0 of 6
- survivor count [4]: 0 of 6

SMILES: NCCCn1cnc2c(N)ncnc21
- survivor count (dose: 200.0 mg/kg/injection, schedule: Q01DX009 (ip), vehicle: saline): 0 of 6
- survivor count [11]: 0 of 6
- survivor count [2]: 1 of 6

SMILES: COc1ccc(NC(=O)Oc2ccc(C=O)cc2OC)c(OC)c1
- survivor count [12]: 6 of 6
- survivor count [13]: 5 of 6
- survivor count [5]: 3 of 6

SMILES: C=C(NC(=O)COc1ccccc1)C(=O)O
- survivor count [11]: 0 of 6

SMILES: NC(N)=N/N=C/CO
- survivor count (dose: 15.0 mg/kg/injection, schedule: Q01DX Z (ip), vehicle: saline): 2 of 6
- survivor count (dose: 30.0 mg/kg/injection, schedule: Q01DX Z (ip), vehicle: saline): 0 of 6
- survivor count (dose: 60.0 mg/kg/injection, schedule: Q01DX Z (ip), vehicle: saline): 0 of 6
- survivor count (dose: 120.0 mg/kg/injection, schedule: Q01DX Z (ip), vehicle: saline): 0 of 6
- survivor count (dose: 480.0 mg/kg/injection, schedule: Q01DX Z (oral), vehicle: saline): 6 of 6
- survivor count (dose: 960.0 mg/kg/injection, schedule: Q01DX Z (oral), vehicle: saline): 4 of 6

SMILES: CCCCCCCCCCCCN1CC1
- survivor count (dose: 40.0 mg/kg/injection, schedule: Q01DX009 (ip), vehicle: Klucel (hydroxypropylcellulose) (HPC)): 2 of 6
- survivor count [12]: 0 of 6
- survivor count [13]: 0 of 6
- survivor count [5]: 0 of 6

SMILES: O=C(CNC(=O)NCc1ccco1)N/N=C/c1ccc(Cl)c(Cl)c1
- survivor count [13]: 6 of 6 (2×)

SMILES: COc1c(C(C)(C)C)cc(/C=C(\NC(=O)c2ccccc2)C(=O)O)cc1C(C)(C)C
- survivor count (dose: 400.0 mg/kg/injection, schedule: Q01DX001 (ip), vehicle: Klucel (hydroxypropylcellulose) (HPC)): 0 of 3

SMILES: Nc1cnc([S][Sn]([c]2ccccc2)([c]2ccccc2)[c]2ccccc2)s1
- survivor count (dose: 100.0 mg/kg/injection, schedule: Q04DX002 (ip), vehicle: saline with Tween-80): 0 of 3
- survivor count (dose: 200.0 mg/kg/injection, schedule: Q04DX002 (ip), vehicle: saline with Tween-80): 0 of 3
- survivor count (dose: 400.0 mg/kg/injection, schedule: Q04DX002 (ip), vehicle: saline with Tween-80): 0 of 3

SMILES: CCCNC(=O)Nc1ccc(C(=O)OCC(C)C)cc1
- survivor count (dose: 400.0 mg/kg/injection, schedule: Q01DX009 (ip), vehicle: saline with Tween-80): 6 of 6

SMILES: O=S(=O)(F)c1c(Cl)cccc1C[P+](c1ccccc1)(c1ccccc1)c1ccccc1
- survivor count (dose: 25.0 mg/kg/injection, schedule: Q01DX001 (ip), vehicle: saline with Tween-80): 1 of 6
- survivor count [6]: 5 of 6
- survivor count [10]: 0 of 6
- survivor count [7]: 0 of 6
- survivor count [3]: 0 of 6
- survivor count [4]: 0 of 6

SMILES: CCCCN1CC1(C)C (configuration not stated)
- survivor count [8]: 0 of 6
- survivor count [9]: 0 of 6

SMILES: CC(C)CCCC(C)C1CCC2C3CC=C4CC(O)CCC4(C)C3CCC12C (configuration not stated) (tested in a mixture with another compound)
- survivor count (dose: 200.0 mg/kg/injection, schedule: Q01DX001 (ip), vehicle: water): 0 of 6
- survivor count (dose: 400.0 mg/kg/injection, schedule: Q01DX001 (ip), vehicle: water): 0 of 6

SMILES: NN(CC1=COc2ccccc2O1)Cc1ccccc1
- survivor count [5]: 0 of 6

SMILES: Nc1nc(SCc2ccccc2)c2[nH]cnc2n1
- T/C (dose: 5.0 mg/kg/injection, schedule: Q01DX Z (ip), vehicle: carboxymethylcellulose (CMC)): 136 % of control
- T/C (dose: 8.0 mg/kg/injection, schedule: Q01DX Z (ip), vehicle: carboxymethylcellulose (CMC)): 126 % of control
- T/C (dose: 15.0 mg/kg/injection, schedule: Q01DX Z (ip), vehicle: carboxymethylcellulose (CMC)): 141 % of control
- T/C (dose: 16.0 mg/kg/injection, schedule: Q01DX010 (ip), vehicle: saline): 127 % of control
- T/C (dose: 16.0 mg/kg/injection, schedule: Q01DX Z (ip), vehicle: carboxymethylcellulose (CMC)): 135 % of control
- T/C (dose: 16.0 mg/kg/injection, schedule: Q01DX Z (oral), vehicle: carboxymethylcellulose (CMC)): 147 % of control
- T/C (dose: 20.0 mg/kg/injection, schedule: Q01DX Z (ip), vehicle: carboxymethylcellulose (CMC)): 135 % of control
- T/C (dose: 20.0 mg/kg/injection, schedule: Q03DX Z (ip), vehicle: carboxymethylcellulose (CMC)): 136 % of control
- T/C (dose: 20.0 mg/kg/injection, schedule: Q07DX Z (ip), vehicle: carboxymethylcellulose (CMC)): 142 % of control
- T/C (dose: 30.0 mg/kg/injection, schedule: Q01DX Z (ip), vehicle: carboxymethylcellulose (CMC)): 133 % of control
- T/C (dose: 30.0 mg/kg/injection, schedule: Q03DX Z (ip), vehicle: carboxymethylcellulose (CMC)): 142 % of control
- T/C (dose: 31.3 mg/kg/injection, schedule: Q01DX010 (ip), vehicle: saline): 128 % of control
- T/C (dose: 32.0 mg/kg/injection, schedule: Q01DX010 (ip), vehicle: saline): 138 % of control
- T/C (dose: 32.0 mg/kg/injection, schedule: Q01DX Z (ip), vehicle: carboxymethylcellulose (CMC)): 134 % of control
- T/C (dose: 32.0 mg/kg/injection, schedule: Q01DX Z (oral), vehicle: carboxymethylcellulose (CMC)): 143 % of control
- T/C (dose: 60.0 mg/kg/injection, schedule: Q03DX Z (ip), vehicle: carboxymethylcellulose (CMC)): 144 % of control
- T/C (dose: 64.0 mg/kg/injection, schedule: Q01DX010 (ip), vehicle: saline): 138 % of control
- T/C (dose: 82.0 mg/kg/injection, schedule: Q03DX Z (ip), vehicle: carboxymethylcellulose (CMC)): 145 % of control
- T/C (dose: 195.0 mg/kg/injection, schedule: Q03DX Z (ip), vehicle: carboxymethylcellulose (CMC)): 140 % of control
- T/C (dose: 195.0 mg/kg/injection, schedule: Q07DX Z (ip), vehicle: carboxymethylcellulose (CMC)): 137 % of control
- survivor count (dose: 250.0 mg/kg/injection, schedule: Q01DX010 (ip), vehicle: saline): 5 of 6
- T/C (dose: 292.0 mg/kg/injection, schedule: Q01DX001 (ip), vehicle: carboxymethylcellulose (CMC)): 141 % of control
- T/C (dose: 292.5 mg/kg/injection, schedule: Q01DX001 (ip), vehicle: carboxymethylcellulose (CMC)): 146 % of control
- survivor count (dose: 438.0 mg/kg/injection, schedule: Q01DX001 (ip), vehicle: carboxymethylcellulose (CMC)): 5 of 10
